Measured values from US20200392228A1.
Results are given in words; binding and its absence hold for the method and conditions named. A result given as binding can be weak or reduced; the word gives no strength.

B1: MAdCAM antibody Clone ID 10 of Table 6 (scFv) (scFv)
scFv: QVQLVQSGAEVKKPGASVKVSCKASGYTLTTWYMYWVRQAPGQGLEWMGWINPNRGATNYAQKFQGRVTMTRDTSTSTVYMELSSLRSEDTAVYYCAKGDLWGAMDVWGQGTLVTVSSGGGGSGGGGSGGGGSGGGGSDIQMTQSPSSLSASVGDRVTITCRASDNIGSWLAWYQQKPGKAPKLLIYAASSLQSGVPSRFSGSGSGTDFTLTISSLQPEDFATYYCQQGYSTPPTFGQGTKVEIK
B2: MAdCAM antibody Clone ID 11 of Table 6 (scFv) (scFv)
scFv: QVQLVQSGAEVKKPGASVKVSCKASGYTFTTYYMHWVRQAPGQGLEWMGGFDPEDGETIYAQKFQGRVTMTRDTSTSTVYMELSSLRSEDTAVYYCARHAVAGAVGAGYYYYGMDVWGQGTMVTVSSGGGGSGGGGSGGGGSGGGGSDIQMTQSPSSLSASVGDRVTITCRASESISNWLAWYQQKPGKAPKLLIYAASTLQSGVPSRFSGSGSGTDFTLTISSLQPEDFATYYCQQSYSVPFTFGPGTKVDIK
B3: MAdCAM antibody Clone ID 12 of Table 6 (scFv) (scFv)
scFv: QVQLVQSGAEVKKPGASVKVSCKASGYTFTGYYMHWVRQAPGQGLEWMGWIGPNSGDTNYAQKFQGRVTMTRDTSTSTVYMELSSLRSEDTAVYYCARDLDHNWYFDLWGRGTLVTVSSGGGGSGGGGSGGGGSGGGGSDIVMTQSPLSLPVTPGEPASISCRSSQSLLHSNGYNYLDWYLQKPGQSPQLLIYSSSNRAPGVPDRFSGSGSGTDFTLKISRVEAEDVGVYYCMQALHIPLTFGGGTKVEIK
B4: MAdCAM antibody Clone ID 13 of Table 6 (scFv) (scFv)
scFv: EVQLLESGGGLVQPGGSLRLSCAASGFTFDDYAMHWVRQAPGKGLEWVSYIDASGTTIYYADSVKGRFTISRDNSKNTLYLQMNSLRAEDTAVYYCAKDQAAAGYWYFDLWGRGTLVTVSSGGGGSGGGGSGGGGSGGGGSDIQMTQSPSSLSASVGDRVTITCQASQDISNYLNWYQQKPGKAPKLLIYKASTLESGVPSRFSGSGSGTDFTLTISSLQPEDFATYYCQQSYSTPITFGQGTRLEIK
B5: MAdCAM antibody Clone ID 14 of Table 6 (scFv) (scFv)
scFv: QVQLVQSGAEVKKPGSSVKVSCKASGYTFTDYHIHWVRQAPGQGLEWMGGIVPRSGSTTYAQKFQGRVTITADESTSTAYMELSSLRSEDTAVYYCAKDESSGWYYFDYWGQGTLVTVSSGGGGSGGGGSGGGGSGGGGSDIVMTQSPLSLPVTPGEPASISCRSSQSLLHSNGYNYLDWYLQKPGQSPQLLIYSAYNRASGVPDRFSGSGSGTDFTLKISRVEAEDVGVYYCMQALQTPLTFGQGTKVEIK
B6: MAdCAM antibody Clone ID 15 of Table 6 (scFv) (scFv)
scFv: QVQLVQSGAEVKKPGSSVKVSCKASGYTFTNYYMHWVRQAPGQGLEWMGGIIPIVDRVKYAQKFQGRVTITADESTSTAYMELSSLRSEDTAVYYCAKGRYTVNYYYGMDVWGQGTTVTVSSGGGGSGGGGSGGGGSGGGGSDIQMTQSPSSLSASVGDRVTITCQANQDISNYLNWYQQKPGKAPKLLIYRASKLEAGVPSRFSGSGSGTDFTLTISSLQPEDFATYYCQQSSEIPYSFGQGTKLEIK
B7: MAdCAM antibody Clone ID 16 of Table 6 (scFv) (scFv)
scFv: EVQLLESGGGLVQPGGSLRLSCAASGFTFEDYAMHWVRQAPGKGLEWVSYLNSDGGSTSYADSVKGRFTISRDNSKNTLYLQMNSLRAEDTAVYYCAKDYCTNGVCAFDYWGQGTLVTVSSGGGGSGGGGSGGGGSGGGGSDIQMTQSPSSLSASVGDRVTITCRASQSISTYLNWYQQKPGKAPKLLIYDASNLETGVPSRFSGSGSGTDFTLTISSLQPEDFATYYCQQSYTIPITFGQGTRLEIK
B8: MAdCAM antibody Clone ID 17 of Table 6 (scFv) (scFv)
scFv: EVQLLESGGGLVQPGGSLRLSCAASGFTFSDSAMHWVRQAPGKGLEWVSAISGSGSTIYYADSVKGRFTISRDNSKNTLYLQMNSLRAEDTAVYYCVSDIAVAGHWYFDLWGRGTLVTVSSGGGGSGGGGSGGGGSGGGGSDIQMTQSPSSLSASVGDRVTITCRASQSISTFLNWYQQKPGKAPKLLIYAASRLEGGVPSRFSGSGSGTDFTLTISSLQPEDFATYYCQQANSFPLTFGPGTKVDIK
B9: MAdCAM antibody Clone ID 21 of Table 6 (scFv) (scFv)
scFv: EVQLLESGGGLVQPGGSLRLSCAASGFTFSNAWMSWVRQAPGKGLEWVSTIVGNGGATYYADSVKGRFTISRDNSKNTLYLQMNSLRAEDTAVYYCARDNPLRWQGMDVWGQGTLVTVSSGGGGSGGGGSGGGGSGGGGSDIQMTQSPSSLSASVGDRVTITCRASQDISNYLNWYQQKPGKAPKLLIYAASSLQSGVPSRFSGSGSGTDFTLTISSLQPEDFATYYCQQSYSIPPTFGPGTKVDIK
B10: MAdCAM antibody Clone ID 25 of Table 6 (scFv) (scFv)
scFv: QVQLVQSGAEVKKPGASVKVSCKASGYTLTTWYMYWVRQAPGQGLEWMGWINPNRGATNYAQKFQGRVTMTRDTSTSTVYMELSSLRSEDTAVYYCAKGDLWGAMDVWGQGTLVTVSSGGGGSGGGGSGGGGSGGGGSDIQMTQSPSSLSASVGDRVTITCRASDNIGSWLAWYQQKPGKAPKLLIYAASSLQSGVPSRFSGSGSGTDFTLTISSLQPEDFATYYCQQGYSTPPTFGQGTKVEIK
B11: MAdCAM antibody Clone ID 26 of Table 6 (scFv) (scFv)
scFv: QVQLVQSGAEVKKPGASVKVSCKASGYTLTTWYMYWVRQAPGQGLEWMGWINPNRGATNYAQKFQGRVTMTRDTSTSTVYMELSSLRSEDTAVYYCAKGDLWGAMDVWGQGTTVTVSSGGGGSGGGGSGGGGSGGGGSDIQMTQSPSSLSASVGDRVTITCRASDNIGSWLAWYQQKPGKAPKLLIYAASSLQSGVPSRFSGSGSGTDFTLTISSLQPEDFATYYCQQGYSTPPTFGQGTKVEIK
B12: MAdCAM antibody Clone ID 27 of Table 6 (scFv) (scFv)
scFv: QVQLVQSGAEVKKPGASVKVSCKASGYTFTGYYIHWVRQAPGQGLEWMGWMNPNSGNTGYAQKFQGRVTMTRDTSTSTVYMELSSLRSEDTAVYYCARDPGFLGYCSGGSCYDGWFDPWGQGTLVTVSSGGGGSGGGGSGGGGSGGGGSDIQMTQSPSSLSASVGDRVTITCRASQSISSYLHWYQQKPGKAPKLLIYAASSLQSGVPSRFSGSGSGTDFTLTISSLQPEDFATYYCQQSYTAPYTFGQGTKLEIK
B13: MAdCAM antibody Clone ID 29 of Table 6 (scFv) (scFv)
scFv: QVQLVQSGAEVKKPGASVKVSCKASGYTFTSYYMHWVRQAPGQGLEWMAWMNPNSGNTGYAQKFQGRVTMTRDTSTSTVYMELSSLRSEDTAVYYCARDYDFWSGSLGYWGQGTLVTVSSGGGGSGGGGSGGGGSGGGGSDIQMTQSPSSLSASVGDRVTITCRASQGISNYLAWYQQKPGKAPKLLIYAASSLQSGVPSRFSGSGSGTDFTLTISSLQPEDFATYYCQQSYSTPWTFGQGTKVEIK
B14: MAdCAM antibody Clone ID 30 of Table 6 (scFv) (scFv)
scFv: QVQLVQSGAEVKKPGASVKVSCKASGYTLTTWYMYWVRQAPGQGLEWMGWINPNRGATNYAQKFQGRVTMTRDTSTSTVYMELSSLRSEDTAVYYCAKGDLWGAMDVWGQGTLVTVSSGGGGSGGGGSGGGGSGGGGSDIQMTQSPSSLSASVGDRVTITCRASDNIGSWLAWYQQKPGKAPKLLIYAASSLQSGVPSRFSGSGSGTDFTLTISSLQPEDFATYYCQQGYSTPPTFGQGTKVEIK
B15: MAdCAM antibody Clone ID 31 of Table 6 (scFv) (scFv)
scFv: QVQLVQSGAEVKKPGASVKVSCKASGYTFTSYYMHWVRQAPGQGLEWMGIINPSGGSTSYAQKFQGRVTMTRDTSTSTVYMELSSLRSEDTAVYYCARDTGYSYGRYYYYGMDVWGQGTLVTVSSGGGGSGGGGSGGGGSGGGGSDIQMTQSPSSLSASVGDRVTITCRASQSIGRWLAWYQQKPGKAPKLLIYDASNLQSGVPSRFSGSGSGTDFTLTISSLQPEDFATYYCQQSYSIPITFGQGTKVEIK
B16: MAdCAM antibody Clone ID 33 of Table 6 (scFv) (scFv)
scFv: QVQLVQSGAEVKKPGASVKVSCKASGYTFTSYGISWVRQAPGQGLEWMGWMHPKSGDTGLTQKFQGRVTMTRDTSTSTVYMELSSLRSEDTAVYYCARDTPYYYYGMDVWGQGTTVTVSSGGGGSGGGGSGGGGSGGGGSDIQMTQSPSSLSASVGDRVTITCRASQSISSWLAWYQQKPGKAPKLLIYAASSLQSGVPSRFSGSGSGTDFTLTISSLQPEDFATYYCQQSYSVPITFGQGTKVEIK
B17: MAdCAM antibody Clone ID 35 of Table 6 (scFv) (scFv)
scFv: EVQLLESGGGLVQPGGSLRLSCAASGFSFSSYTMNWVRQAPGKGLEWVSFITSSSRTIYYADSVKGRFTISRDNSKNTLYLQMNSLRAEDTAVYYCARDRRGDYGDSWYFDLWGRGTLVTVSSGGGGSGGGGSGGGGSGGGGSEIVMTQSPATLSVSPGERATLSCRASQSVRNYLAWYQQKPGQAPRLLIYGASTRATGIPARFSGSGSGTEFTLTISSLQSEDFAVYYCQQYGSSPLTFGGGTKVEIK
B18: MAdCAM antibody Clone ID 36 of Table 6 (scFv) (scFv)
scFv: QVQLVQSGAEVKKPGASVKVSCKASGYTFTGHYMHWVRQAPGQGLEWMGIINPSGGSTSYAQKFQGRVTMTRDTSTSTVYMELSSLRSEDTAVYYCARDTGYSYGRYYYYGMDVWGQGTTVTVSSGGGGSGGGGSGGGGSGGGGSDIQMTQSPSSLSASVGDRVTITCRASQSIGRWLAWYQQKPGKAPKLLIYDASNLQSGVPSRFSGSGSGTDFTLTISSLQPEDFATYYCQQSYSIPITFGGGTKVEIK
B19: MAdCAM antibody Clone ID 38 of Table 6 (scFv) (scFv)
scFv: EVQLLESGGGLVQPGGSLRLSCAASGFTFGSYSMSWVRQAPGKGLEWVSAIGTGGGTYYADSVKGRFTISRDNSKNTLYLQMNSLRAEDTAVYYCAKGTPYYYYYGMDVWGQGTMVTVSSGGGGSGGGGSGGGGSGGGGSDIQMTQSPSSLSASVGDRVTITCRASQPLSNWLAWYQQKPGKAPKLLIYAASSLQSGVPSRFSGSGSGTDFTLTISSLQPEDFATYYCQQAISFPLTFGGGTKVEIK
B20: MAdCAM antibody Clone ID 60 of Table 6 (scFv) (scFv)
scFv: EVQLLESGGGLVQPGGSLRLSCAASGFTFDDYTMHWVRQAPGKGLEWVSDISGSGGSTYYADSVKGRFTISRDNSKNTLYLQMNSLRAEDTAVYYCAKDVVVAGTPLHFDYWGQGTLVTVSSGGGGSGGGGSGGGGSGGGGSDIQMTQSPSSLSASVGDRVTITCQASQDISNYLNWYQQKPGKAPKLLIYAASYLQSGVPSRFSGSGSGTDFTLTISSLQPEDFATYYCQQAHNYPITFGQGTRLEIK

biological target: Cyno MAdCAM protein (cyno); test: ELISA

binding, binds:
B1
B2
B3
B4
B5
B6
B7
B8
B9
B10
B11
B12
B13
B14
B15
B16
B17
B18
B19

biological target: Cyno MAdCAM protein (cyno); test: Octet

binding, binds:
B20
